Data taken from EP0055702B1, “Antithrombotic treatment” (priority 1980, dated 1982).

Test system: rats
Test: Rats fed bait containing 0.5% sodium bisulphite
Format: in vivo
Settings: bait with 0.5% sodium bisulphite
From the text: Five rats, each in a separate cage, were given a bait containing 0.5 percent by weight of sodium bisulphite. The bait consisted of cracked grains (wheat, corn, millet and corn meal). The amounts of bait eaten were summarized for an eleven day period.

Substance: Sodium bisulphite
- g bait eaten (1 day, 250g rats 1-5): 27.8 g and 25.9 g and 26.7 g and 28.0 g and 27.0 g
- g bait eaten (3 days, 250g rats): 19.2 g and 19.4 g and 11.4 g
- g bait eaten (4 days, 250g rats): 18.9 g and 10.1 g and 10.4 g
- g bait eaten (9 days, 250g rats): 26.8 g and 27.8 g and 25.7 g
- g bait eaten (10 days, 250g rats): 22.7 g and 26.2 g and 26.3 g
- g bait eaten (11 days, 250g rats): 23.8 g and 21.0 g and 22.8 g

“And” between values parts separate entries of the source, which are not always exact repeats. Equal entries are not always repeated.
